The source of these data is paper PMC3507953.

No constants are given. Whether binding was seen depends on the method and setting. Binding seen in cells or lysates may run through a third protein. Some binding calls cover weakened binding; strength is not graded here. Tags and fused reporters may be left off the sequences shown.

For one experiment, the target named is T1, 6Myc-Ebf1 (293T) (UniProt Q07802).
T1 sequence: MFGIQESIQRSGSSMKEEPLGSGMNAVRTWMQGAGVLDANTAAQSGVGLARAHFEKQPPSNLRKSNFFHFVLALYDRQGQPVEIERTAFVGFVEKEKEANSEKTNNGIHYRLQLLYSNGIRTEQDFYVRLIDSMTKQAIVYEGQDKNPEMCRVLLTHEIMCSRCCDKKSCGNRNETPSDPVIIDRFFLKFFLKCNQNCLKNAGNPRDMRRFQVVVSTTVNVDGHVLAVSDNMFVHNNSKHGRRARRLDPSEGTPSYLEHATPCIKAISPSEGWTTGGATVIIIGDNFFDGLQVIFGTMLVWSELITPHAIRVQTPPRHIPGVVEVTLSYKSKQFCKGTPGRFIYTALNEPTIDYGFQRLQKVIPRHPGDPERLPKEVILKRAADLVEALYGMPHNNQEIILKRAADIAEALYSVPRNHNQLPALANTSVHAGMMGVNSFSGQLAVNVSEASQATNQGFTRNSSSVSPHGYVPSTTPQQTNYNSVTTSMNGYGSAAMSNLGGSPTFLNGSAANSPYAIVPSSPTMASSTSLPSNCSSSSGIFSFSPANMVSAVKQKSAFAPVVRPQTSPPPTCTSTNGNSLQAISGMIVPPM
Put plainly: co-IP; 293T cells transiently transfected (48 h) with 2HA-Zfp521, 3Flag-Zfp423 and 6Myc-Ebf1 in combinations (also without Ebf1); immunoprecipitation with anti-Flag, anti-HA or anti-Myc as indicated, blots with the same antibodies.

The next experiment addresses T2, 3Flag-Zfp423 (293T) (UniProt Q80TS5).
T2 sequence: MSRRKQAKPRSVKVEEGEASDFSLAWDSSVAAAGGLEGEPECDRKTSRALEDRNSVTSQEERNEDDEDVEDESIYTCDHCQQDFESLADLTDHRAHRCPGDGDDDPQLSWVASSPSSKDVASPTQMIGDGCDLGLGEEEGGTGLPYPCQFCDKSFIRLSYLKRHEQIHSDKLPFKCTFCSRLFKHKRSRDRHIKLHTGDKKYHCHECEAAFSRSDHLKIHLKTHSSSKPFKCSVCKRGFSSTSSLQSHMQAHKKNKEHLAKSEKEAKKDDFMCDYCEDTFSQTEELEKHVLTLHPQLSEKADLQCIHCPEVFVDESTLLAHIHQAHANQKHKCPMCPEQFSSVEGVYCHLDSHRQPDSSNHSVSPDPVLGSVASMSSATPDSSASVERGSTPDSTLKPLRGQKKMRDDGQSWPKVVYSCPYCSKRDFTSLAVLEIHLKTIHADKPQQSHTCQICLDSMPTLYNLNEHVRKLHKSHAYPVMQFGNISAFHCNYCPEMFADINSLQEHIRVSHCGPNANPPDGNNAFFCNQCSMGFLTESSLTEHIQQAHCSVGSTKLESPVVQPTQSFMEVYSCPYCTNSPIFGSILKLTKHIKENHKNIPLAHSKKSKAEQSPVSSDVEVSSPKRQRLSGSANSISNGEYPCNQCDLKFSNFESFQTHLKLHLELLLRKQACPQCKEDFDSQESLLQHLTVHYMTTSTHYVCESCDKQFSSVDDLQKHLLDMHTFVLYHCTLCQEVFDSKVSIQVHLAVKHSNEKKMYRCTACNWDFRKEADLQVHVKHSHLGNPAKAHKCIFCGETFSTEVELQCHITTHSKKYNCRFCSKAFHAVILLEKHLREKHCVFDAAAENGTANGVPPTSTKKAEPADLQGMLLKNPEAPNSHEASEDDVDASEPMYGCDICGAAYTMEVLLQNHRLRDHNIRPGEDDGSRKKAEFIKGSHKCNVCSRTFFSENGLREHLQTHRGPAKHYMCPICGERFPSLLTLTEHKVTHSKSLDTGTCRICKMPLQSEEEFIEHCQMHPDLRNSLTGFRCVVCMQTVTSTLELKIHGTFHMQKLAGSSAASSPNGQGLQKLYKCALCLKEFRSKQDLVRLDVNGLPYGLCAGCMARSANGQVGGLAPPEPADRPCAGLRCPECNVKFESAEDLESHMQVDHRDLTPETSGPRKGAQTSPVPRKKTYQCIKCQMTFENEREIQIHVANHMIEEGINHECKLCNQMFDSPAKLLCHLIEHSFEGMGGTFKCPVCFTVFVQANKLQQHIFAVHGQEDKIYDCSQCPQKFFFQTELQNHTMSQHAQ
The description is as above.

B1: 2HA-Zfp521 (293T) (protein, UniProt Q6KAS7 1-1311)
chain: MSRRKQAKPRSLKDPNCKLEDKIEDGEAVDCKKRPEDGEELEEDAVHSCDSCLQVFESLSDITEHKIHQCQLTDGVDVEDDPSCSWPASSPSSKDQTSPSHGEGCDFGEEEGGPGLPYPCQFCDKSFSRLSYLKHHEQSHSDKLPFKCTYCSRLFKHKRSRDRHIKLHTGDKKYHCSECDAAFSRSDHLKIHLKTHTSNKPYKCAVCRRGFLSSSSLHGHMQVHERNKDGSQSGSRMEDWKMKDTQKCSQCEEGFDFPEDLQKHIAECHPECSPNEDRAALQCMYCHELFVEETSLMNHIEQVHGGEKKNSCSICSESFLTVEELYSHMDSHQQPESCNHSNSPSLVTVGYTSVSSTTPDSNLSVDSSTMVEAAPPIPKSRGRKRAAQQTSDMTGPSSKQAKVTYSCIYCNKQLFSSLAVLQIHLKTMHLDKPEQAHICQYCLEVLPSLYNLNEHLKQVHEAQDPGLIVSAMPAIVYQCNFCSEVVNDLNTLQEHIRCSHGFANPAAKDSNAFFCPHCYMGFLTDSSLEEHIRQVHCDLSGSRFGSPVLGTPKEPVVEVYSCSYCTNSPIFNSVLKLNKHIKENHKNIPLALNYIHNGKKSRALSPLSPVAIEQTTLKMMQTVGGGPARASGEYICNQCGAKYTSLDSFQTHLKTHLDTVLPKLTCPQCNKEFPNQESLLKHVTIHFMITSTYYICESCDKQFTSVDDLQKHLLDMHTFVFFRCTLCQEVFDSKVSIQLHLAVKHSNEKKVYRCTSCNWDFRNETDLQLHVKHNHLENQGKVHKCIFCGESFGTEVELQCHITTHSKKYNCRFCSKAFHAVILLEKHLREKHCVFETKTPNCGTNGASEQVQKEEAELQTLLTNSQESHNSHDGSEEDVDSSEPMYGCDICGAAYTMETLLQNHQLRDHNIRPGESAIVKKKAELIKGNYKCNVCSRTFFSENGLREHMQTHLGPVKHYMCPICGERFPSLLTLTEHKVTHSKSLDTGNCRICKMPLQSEEEFLEHCQMHPDLRNSLTGFRCVVCMQTVTSTLELKIHGTFHMQKTGNGSSVQTTGRGQHVQKLYKCASCLKEFRSKQDLVKLDINGLPYGLCAGCVNLSKSSSPGLSLPPGASRPGLGQNESLSAMEGKGKAGGLKTRCSSCNVKFESESELQNHIQTVHRELVPDANSTQLKTPQVSPMPRISPSQSDEKKTYQCIKCQMVFYNEWDIQVHVANHMIDEGLNHECKLCSQTFDSPAKLQCHLIEHSFEGMGGTFKCPVCFTVFVQANKLQQHIFSAHGQEDKIYDCTQCPQKFFFQTELQNHTMTQHSS
With B1, the binding entry with 6Myc-Ebf1 (293T) and in the experiment with 3Flag-Zfp423 (293T) was “binds” each time.
